Results as given in paper PMC11102558.
These are yes or no findings as the source states them, for the method shown. In cells and extracts the contact can be indirect. Here binding means that the protein was enriched with, or labelled near, the bait; the list need not be complete. Sequences can lack the tags named with a protein.

Chains of the proteins cited; added tags and fusions are not shown.
UniProt P46940: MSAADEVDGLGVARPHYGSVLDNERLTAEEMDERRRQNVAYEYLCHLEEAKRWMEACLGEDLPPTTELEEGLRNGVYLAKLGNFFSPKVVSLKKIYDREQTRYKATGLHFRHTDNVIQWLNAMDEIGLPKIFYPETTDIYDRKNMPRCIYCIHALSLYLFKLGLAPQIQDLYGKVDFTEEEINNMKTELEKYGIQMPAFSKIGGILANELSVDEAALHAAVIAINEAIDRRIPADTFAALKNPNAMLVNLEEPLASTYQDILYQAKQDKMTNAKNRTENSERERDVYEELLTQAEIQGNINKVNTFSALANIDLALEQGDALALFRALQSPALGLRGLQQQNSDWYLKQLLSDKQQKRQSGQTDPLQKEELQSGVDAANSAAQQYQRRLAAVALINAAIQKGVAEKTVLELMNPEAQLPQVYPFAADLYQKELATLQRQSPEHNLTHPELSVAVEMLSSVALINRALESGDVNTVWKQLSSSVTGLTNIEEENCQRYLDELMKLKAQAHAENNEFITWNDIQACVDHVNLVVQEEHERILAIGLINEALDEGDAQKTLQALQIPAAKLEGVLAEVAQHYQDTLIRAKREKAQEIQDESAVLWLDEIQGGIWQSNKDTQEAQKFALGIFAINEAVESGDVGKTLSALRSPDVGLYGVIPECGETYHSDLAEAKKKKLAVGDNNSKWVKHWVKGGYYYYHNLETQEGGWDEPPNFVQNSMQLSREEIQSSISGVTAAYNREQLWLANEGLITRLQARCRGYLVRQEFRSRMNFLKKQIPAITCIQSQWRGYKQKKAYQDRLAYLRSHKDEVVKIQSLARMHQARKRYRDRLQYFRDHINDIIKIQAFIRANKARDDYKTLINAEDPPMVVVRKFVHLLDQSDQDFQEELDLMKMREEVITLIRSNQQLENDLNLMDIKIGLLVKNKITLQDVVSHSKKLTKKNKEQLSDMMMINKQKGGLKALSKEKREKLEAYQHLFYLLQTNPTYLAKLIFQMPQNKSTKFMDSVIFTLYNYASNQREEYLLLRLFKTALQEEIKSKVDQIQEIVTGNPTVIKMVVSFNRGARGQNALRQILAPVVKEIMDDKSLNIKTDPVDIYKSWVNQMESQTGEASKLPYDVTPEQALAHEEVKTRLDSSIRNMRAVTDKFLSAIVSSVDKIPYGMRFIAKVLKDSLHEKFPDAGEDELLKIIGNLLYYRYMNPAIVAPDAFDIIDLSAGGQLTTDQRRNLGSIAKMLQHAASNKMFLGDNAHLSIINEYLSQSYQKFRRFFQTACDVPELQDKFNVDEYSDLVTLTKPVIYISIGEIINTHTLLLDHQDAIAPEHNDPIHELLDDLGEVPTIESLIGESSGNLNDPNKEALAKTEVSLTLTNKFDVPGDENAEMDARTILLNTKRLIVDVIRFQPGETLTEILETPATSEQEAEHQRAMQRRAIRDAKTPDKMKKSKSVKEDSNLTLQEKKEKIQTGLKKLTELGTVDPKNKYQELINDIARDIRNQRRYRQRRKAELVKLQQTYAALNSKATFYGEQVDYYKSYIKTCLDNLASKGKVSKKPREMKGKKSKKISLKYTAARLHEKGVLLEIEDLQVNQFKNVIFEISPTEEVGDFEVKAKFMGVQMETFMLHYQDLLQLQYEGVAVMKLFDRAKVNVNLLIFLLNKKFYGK

Target: T1, FLAG-tagged ROBO4 (Roundabout4), expressed from an adenoviral vector in HUVECs (UniProt Q8WZ75)
T1 sequence: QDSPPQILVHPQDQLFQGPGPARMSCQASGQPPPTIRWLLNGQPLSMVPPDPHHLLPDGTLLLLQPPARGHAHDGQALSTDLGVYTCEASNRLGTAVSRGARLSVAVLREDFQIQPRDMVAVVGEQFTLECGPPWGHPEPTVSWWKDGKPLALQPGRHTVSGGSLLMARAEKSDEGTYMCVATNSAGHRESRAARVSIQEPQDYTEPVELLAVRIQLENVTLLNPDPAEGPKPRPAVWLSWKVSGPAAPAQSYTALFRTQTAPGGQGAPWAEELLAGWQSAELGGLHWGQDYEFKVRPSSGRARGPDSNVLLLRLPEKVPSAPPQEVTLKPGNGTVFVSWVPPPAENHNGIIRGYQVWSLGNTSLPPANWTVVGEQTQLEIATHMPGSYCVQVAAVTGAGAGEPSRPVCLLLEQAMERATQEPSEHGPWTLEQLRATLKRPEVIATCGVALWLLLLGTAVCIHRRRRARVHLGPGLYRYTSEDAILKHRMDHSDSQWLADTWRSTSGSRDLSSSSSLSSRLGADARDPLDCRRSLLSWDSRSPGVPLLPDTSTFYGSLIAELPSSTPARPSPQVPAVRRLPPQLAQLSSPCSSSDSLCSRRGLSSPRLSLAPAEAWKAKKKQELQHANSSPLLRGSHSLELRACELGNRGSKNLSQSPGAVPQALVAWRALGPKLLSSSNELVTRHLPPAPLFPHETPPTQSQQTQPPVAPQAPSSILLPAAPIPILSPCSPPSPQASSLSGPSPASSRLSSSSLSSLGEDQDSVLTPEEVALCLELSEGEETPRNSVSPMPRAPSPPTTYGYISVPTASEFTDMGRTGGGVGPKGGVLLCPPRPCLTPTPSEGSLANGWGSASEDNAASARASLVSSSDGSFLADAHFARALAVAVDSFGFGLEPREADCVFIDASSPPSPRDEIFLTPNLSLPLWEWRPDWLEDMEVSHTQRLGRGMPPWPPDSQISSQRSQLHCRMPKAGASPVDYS
Assay: affinity purification with mass spectrometry; HUVECs infected with adenoviral vector for ROBO4-FLAG (control AcGFP), 36 h; lysis in 50 mM Tris-HCl pH 7.4, 150 mM NaCl, 1% Triton X-100, 0.5% sodium deoxycholate, 1 mM EDTA; FLAG immunoprecipitation kit; trypsin digest, LC-MS/MS

Substance: Ras GTPase-activating-like protein IQGAP1 (IQ motif-containing GTPase-activating protein 1), endogenous in HUVECs (from UniProt P46940 1-1657)
- binding: binds
